The list shows a part of the results. These are further read-outs of the screen, such as a control signal, another cell line or another target. No call is given for them. The list favours compounds with an active or inconclusive main result.

The test is described as follows: hepatocyte lipid droplet accumulation inhibitors, confirmation, imaging, AML12 mouse hepatocytes, single concentration, high-content (AID 463183).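 Note: cells counted after overnight compound exposure.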 To be noted: BODIPY lipid droplet imaging, measured here: cell count, cytotoxicity, at 5.2 µM, droplets induced with 100 µM oleic acid.
In turn, `CCCN1C(=O)/C(=C\C=C2\N(CC)c3ccccc3C2(C)C)SC1=S` yielded a cell count of 1610 cells.

In the case of `O=C(Oc1cccc(/C=N/Nc2nc(Nc3ccccc3)nc(N3CCOCC3)n2)c1)c1ccco1`, the cell count came out at 1100 cells.

`O=C(c1nn2c(C(F)(F)F)cc(-c3cccs3)nc2c1Cl)N1CCCc2ccccc21` registered a cell count of 1500 cells.

The compound `CCOc1ccc(CCNC(=O)CSc2cc(=O)n(C)c3ccccc23)cc1OCC` showed a cell count of 1550 cells.

Take `Cc1ccc(/C=C/C(=O)NCC2COc3ccccc3O2)o1` (configuration not stated): the cell count was determined as 1640 cells.

`CCCCN1C(=O)/C(=C/C=C2\Oc3ccccc3N2CC)SC1=S`: the cell count was 1610 cells.

Consider `Nc1cc(Nc2ccccc2)c2nonc2c1[N+](=O)[O-]`, for which the cell count was determined as 1540 cells.

The compound `CCOc1ccc2ccccc2c1/C=N/NC(=O)CNC(=O)C(c1ccccc1)c1ccccc1` showed a cell count of 1620 cells.

Consider `NC(=O)N/N=C/c1ccc(-c2ccc([N+](=O)[O-])cc2)o1`, for which the cell count is 1590 cells.

Regarding `CCCOC(=O)c1ccc(NC(=O)c2ccc(Br)o2)cc1`, the cell count stood at 1660 cells.

As for `COc1ccc(CC(=O)OCC(=O)N2N=C(c3ccccc3)CC2c2ccc(OC)cc2)cc1` (configuration not stated), the cell count worked out at 1610 cells.

For `COc1ccc(NC(=O)CSc2nc3ccccc3nc2N2CCCCC2)cc1`, the cell count was found to be 1690 cells.

As to `COc1ccc(C)cc1NC(=O)CCNS(=O)(=O)c1cccc(C(F)(F)F)c1`, the cell count came out at 1530 cells.

`OC(COc1ccc2cc(Br)ccc2c1)Cn1ccnc1` (configuration not stated) returned a cell count of 1600 cells.

Take `O=C(c1nn2c(C(F)(F)F)cc(-c3cccs3)nc2c1Br)N1CCCc2ccccc21`: the cell count is 1290 cells.

On to `CC(C)(C)C(=O)Nc1nc2c(s1)COc1ccccc1-2`, for which the cell count was determined as 1620 cells.

The compound `COc1ccc(C(C(=O)NC(C)(C)C)N(CC2CCCO2)C(=O)CCC(=O)Nc2cc(C)on2)cc1` (configuration not stated) displayed a cell count of 1680 cells.

Consider `CCCOc1ccc(C2=NNC(c3cccs3)=Nc3ccc(OC)cc32)cc1`, for which the cell count was found to be 1640 cells.

On to `COc1ccc(CCNC(=O)CCc2cn(C)c3ccccc23)c(OC)c1OC`, for which the cell count amounted to 1550 cells.

For the compound `COc1ccc(-c2cnc(SCC(=O)Nc3nc(C(C)(C)C)cs3)n2Cc2ccco2)cc1`, the cell count is 1560 cells.

Compound `COc1cccc(N=CC=C2OC(C)(C)C(C)(C)O2)c1` returned a cell count of 1630 cells.

`CCN1C(=O)/C(=C/C=C2/Sc3ccc4ccccc4c3N2CCO)SC1=S` had a cell count of 1650 cells.
